Patent publication US20230382910A1, “HETEROARYL COMPOUNDS FOR THE TREATMENT OF PAIN” (VERTEX PHARMACEUTICALS INCORPORATED, priority 2022, published 2023)
Some results were stated once for a whole list of compounds, not compound by compound.

By UniProt entry, the sequences of proteins in these tests, tags left out. Residues count along the entry.
UniProt Q9Y5Y9, 660-890 limits assumed: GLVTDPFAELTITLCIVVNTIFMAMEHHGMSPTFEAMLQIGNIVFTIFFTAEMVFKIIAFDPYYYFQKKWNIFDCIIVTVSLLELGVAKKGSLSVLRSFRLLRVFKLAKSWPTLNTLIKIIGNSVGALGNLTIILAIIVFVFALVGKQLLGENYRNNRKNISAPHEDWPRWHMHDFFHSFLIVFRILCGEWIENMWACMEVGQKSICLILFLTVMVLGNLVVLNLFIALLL
UniProt Q9Y5Y9, 1148-1722 limits assumed: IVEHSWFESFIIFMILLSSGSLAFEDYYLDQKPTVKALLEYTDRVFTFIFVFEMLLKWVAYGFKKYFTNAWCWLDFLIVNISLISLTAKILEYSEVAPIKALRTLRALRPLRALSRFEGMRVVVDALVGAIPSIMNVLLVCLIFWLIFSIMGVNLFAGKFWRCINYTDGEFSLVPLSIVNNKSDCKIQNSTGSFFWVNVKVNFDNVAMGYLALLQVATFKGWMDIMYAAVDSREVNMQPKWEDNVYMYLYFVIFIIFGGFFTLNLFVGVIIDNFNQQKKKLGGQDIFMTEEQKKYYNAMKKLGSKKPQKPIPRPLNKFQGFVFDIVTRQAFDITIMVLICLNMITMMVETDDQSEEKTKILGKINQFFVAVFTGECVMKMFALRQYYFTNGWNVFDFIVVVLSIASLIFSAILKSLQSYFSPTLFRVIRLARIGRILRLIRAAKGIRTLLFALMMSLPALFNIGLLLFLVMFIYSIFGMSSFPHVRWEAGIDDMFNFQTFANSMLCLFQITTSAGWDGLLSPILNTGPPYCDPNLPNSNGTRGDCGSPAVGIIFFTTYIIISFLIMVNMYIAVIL
UniProt Q9Y5Y9, 126-399 limits assumed: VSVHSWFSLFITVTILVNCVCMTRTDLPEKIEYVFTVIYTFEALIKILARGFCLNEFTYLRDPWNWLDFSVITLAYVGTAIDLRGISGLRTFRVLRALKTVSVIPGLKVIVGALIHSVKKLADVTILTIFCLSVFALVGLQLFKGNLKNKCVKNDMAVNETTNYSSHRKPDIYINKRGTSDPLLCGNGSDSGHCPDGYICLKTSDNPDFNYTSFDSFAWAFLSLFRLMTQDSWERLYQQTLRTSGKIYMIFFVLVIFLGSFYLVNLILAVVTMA

Target: human NaV 1.8 (Homo sapiens, UniProt Q9Y5Y9)
Test: E-VIPR Assay Detecting and Measuring NaV Inhibition Properties
Assay type: cell-based
Conditions: HEK cells expressing a truncated form of human NaV 1.8; electrical stimulation, membrane potential FRET dyes; read-out: measured IC50 value in the E-VIPR Assay

**Q.** With `Cc1cc(C(C)(C)C)c(Cl)cc1-c1cc(=O)c2c(-n3nccc3C)nccc2[nH]1` [Compound 395, 2-(4-tert-butyl-5-chloro-2-methyl-phenyl)-5-(5-methylpyrazol-1-yl)-1H-1,6-naphthyridin-4-one] as the compound, how does the IC50 read?
**A.** < 500 nM

**Q.** With `Cc1cn(C)c(-c2nccc3[nH]c(-c4cc(Cl)c(C(C)(C)C)cc4C)cc(=O)c23)n1` [Compound 396, 2-(4-tert-butyl-5-chloro-2-methyl-phenyl)-5-(1,4-dimethylimidazol-2-yl)-1H-1,6-naphthyridin-4-one] as the compound, how does the IC50 read?
**A.** < 500 nM

**Q.** With `Cc1cc(C(C)(C)C)c(Cl)cc1-c1cc(=O)c2c(-c3nncn3C)nccc2[nH]1` [Compound 397, 2-(4-tert-butyl-5-chloro-2-methyl-phenyl)-5-(4-methyl-1,2,4-triazol-3-yl)-1H-1,6-naphthyridin-4-one] as the compound, how does the IC50 read?
**A.** < 500 nM

**Q.** How did the IC50 turn out when `Cc1cc(C(C)(C)C)c(Cl)cc1-c1cc(=O)c2c(-c3nc(Cl)nn3C)nccc2[nH]1` [Compound 398, 2-(4-tert-butyl-5-chloro-2-methyl-phenyl)-5-(5-chloro-2-methyl-1,2,4-triazol-3-yl)-1H-1,6-naphthyridin-4-one] was run?
**A.** < 500 nM

**Q.** With `Cc1cc(C(C)(C)C)c(C)cc1-c1cc(=O)c2c(-c3nc(Cl)nn3C)nccc2[nH]1` [Compound 399, 2-(4-tert-butyl-2,5-dimethyl-phenyl)-5-(5-chloro-2-methyl-1,2,4-triazol-3-yl)-1H-1,6-naphthyridin-4-one] as the compound, how does the IC50 read?
**A.** < 500 nM

**Q.** Which IC50 does the source give for `Cc1cc(C(C)(C)C)c(Cl)cc1-c1cc(=O)c2c(-c3nnc(C)n3C)nccc2[nH]1` [Compound 400, 2-(4-tert-butyl-5-chloro-2-methyl-phenyl)-5-(4,5-dimethyl-1,2,4-triazol-3-yl)-1H-1,6-naphthyridin-4-one] here?
**A.** < 500 nM

**Q.** `Cc1cn(C)c(-c2nccc3[nH]c(-c4cc(Cl)c(C(C)(C)C)nc4C)cc(=O)c23)n1` [Compound 401, 2-(6-tert-butyl-5-chloro-2-methyl-3-pyridyl)-5-(1,4-dimethylimidazol-2-yl)-1H-1,6-naphthyridin-4-one] was tested. Which IC50 did it give?
**A.** < 500 nM

**Q.** For `Cc1nc(C(C)(C)C)c(Cl)cc1-c1cc(=O)c2c(-c3ncnn3C)nccc2[nH]1` [Compound 402, 2-(6-tert-butyl-5-chloro-2-methyl-3-pyridyl)-5-(2-methyl-1,2,4-triazol-3-yl)-1H-1,6-naphthyridin-4-one], which IC50 is on record?
**A.** < 500 nM

**Q.** Which IC50 does the source give for `Cc1cn(C)c(-c2nccc3[nH]c(-c4cc(Cl)c(C(C)(C)C(F)(F)F)cc4C)cc(=O)c23)n1` [Compound 403, 2-[5-chloro-2-methyl-4-(2,2,2-trifluoro-1,1-dimethyl-ethyl)phenyl]-5-(1,4-dimethylimidazol-2-yl)-1H-1,6-naphthyridin-4-one] here?
**A.** < 500 nM

**Q.** `Cc1nc(-c2nccc3[nH]c(-c4cc(Cl)c(C(C)(C)C(F)(F)F)cc4C)cc(=O)c23)n(C)n1` [Compound 404, 2-[5-chloro-2-methyl-4-(2,2,2-trifluoro-1,1-dimethyl-ethyl)phenyl]-5-(2,5-dimethyl-1,2,4-triazol-3-yl)-1H-1,6-naphthyridin-4-one] was tested. Which IC50 did it give?
**A.** < 500 nM

**Q.** `Cc1nc(-c2nccc3[nH]c(-c4cc(Cl)c(C(C)(C)C)nc4C)cc(=O)c23)n(C)n1` [Compound 405, 2-(6-tert-butyl-5-chloro-2-methyl-3-pyridyl)-5-(2,5-dimethyl-1,2,4-triazol-3-yl)-1H-1,6-naphthyridin-4-one] was tested. Which IC50 did it give?
**A.** < 500 nM

**Q.** `Cc1cc(C(C)(C)C)c(Cl)cc1-c1cc(=O)c2c(-c3nc4ncccc4n3C)nccc2[nH]1` [Compound 406, 2-(4-tert-butyl-5-chloro-2-methyl-phenyl)-5-(1-methylimidazo[4,5-b]pyridin-2-yl)-1H-1,6-naphthyridin-4-one] was tested. Which IC50 did it give?
**A.** < 500 nM

**Q.** Which IC50 does the source give for `Cc1cc(C(C)(C)C)c(C)cc1-c1cc(=O)c2c(-c3ncc(C)n3C)nccc2[nH]1` [Compound 407, 2-(4-tert-butyl-2,5-dimethyl-phenyl)-5-(1,5-dimethylimidazol-2-yl)-1H-1,6-naphthyridin-4-one] here?
**A.** < 500 nM

**Q.** For `Cc1cc(C(C)(C)C)c(Cl)cc1-c1cc(=O)c2c(-c3nn(C)cc3C)nccc2[nH]1` [Compound 408, 2-(4-tert-butyl-5-chloro-2-methyl-phenyl)-5-(1,4-dimethylpyrazol-3-yl)-1H-1,6-naphthyridin-4-one], which IC50 is on record?
**A.** < 500 nM

**Q.** How did the IC50 turn out when `Cc1cc(C(C)(C)C)c(Cl)cc1-c1cc(=O)c2c(-c3ncc(C)n3C)nccc2[nH]1` [Compound 409, 2-(4-tert-butyl-5-chloro-2-methyl-phenyl)-5-(1,5-dimethylimidazol-2-yl)-1H-1,6-naphthyridin-4-one] was run?
**A.** < 500 nM

**Q.** How did the IC50 turn out when `Cc1nc(-c2nccc3[nH]c(-c4cc(Cl)c(C(C)(C)C)cc4C)cc(=O)c23)n(C)n1` [Compound 410, 2-(4-tert-butyl-5-chloro-2-methyl-phenyl)-5-(2,5-dimethyl-1,2,4-triazol-3-yl)-1H-1,6-naphthyridin-4-one] was run?
**A.** < 500 nM

**Q.** How did the IC50 turn out when `Cc1cc(C(C)(C)C)c(Cl)cc1-c1cc(=O)c2c(-c3cccc(C(N)=O)n3)nccc2[nH]1` [Compound 411, 6-[2-(4-tert-butyl-5-chloro-2-methyl-phenyl)-4-oxo-1H-1,6-naphthyridin-5-yl]pyridine-2-carboxamide] was run?
**A.** < 500 nM

**Q.** `Cc1nccc(-c2nccc3[nH]c(-c4cc(Cl)c(C(C)(C)C)cc4C)cc(=O)c23)n1` [Compound 412, 2-(4-tert-butyl-5-chloro-2-methyl-phenyl)-5-(2-methylpyrimidin-4-yl)-1H-1,6-naphthyridin-4-one] was tested. Which IC50 did it give?
**A.** < 500 nM

**Q.** `Cc1cc(C(C)(C)C)c(Cl)cc1-c1cc(=O)c2c(-c3cc[nH]c(=O)n3)nccc2[nH]1` [Compound 413, 2-(4-tert-butyl-5-chloro-2-methyl-phenyl)-5-(2-oxo-1H-pyrimidin-4-yl)-1H-1,6-naphthyridin-4-one] was tested. Which IC50 did it give?
**A.** < 500 nM

**Q.** `Cc1cc(C(C)(C)C)c(Cl)cc1-c1cc(=O)c2c(C(N)=O)nncc2[nH]1` [Compound 414, 2-(4-tert-butyl-5-chloro-2-methyl-phenyl)-4-oxo-1H-pyrido[2,3-d]pyridazine-5-carboxamide] was tested. Which IC50 did it give?
**A.** < 500 nM

**Q.** How did the IC50 turn out when `Cn1nc(C(C)(C)C)c(Cl)c1-c1cc(=O)c2c(C(N)=O)nccc2[nH]1` [Compound 415, 2-(5-tert-butyl-4-chloro-2-methyl-pyrazol-3-yl)-4-oxo-1H-1,6-naphthyridine-5-carboxamide] was run?
**A.** < 500 nM

**Q.** `CC(C)n1nc(C(C)(C)C)c(Cl)c1-c1cc(=O)c2c(C(N)=O)nccc2[nH]1` [Compound 416, 2-(5-tert-butyl-4-chloro-2-isopropyl-pyrazol-3-yl)-4-oxo-1H-1,6-naphthyridine-5-carboxamide] was tested. Which IC50 did it give?
**A.** < 500 nM

**Q.** Which IC50 does the source give for `Cn1nc(C(C)(C)C)cc1-c1cc(=O)c2c(C(N)=O)nccc2[nH]1` [Compound 418, 2-(5-tert-butyl-2-methyl-pyrazol-3-yl)-4-oxo-1H-1,6-naphthyridine-5-carboxamide] here?
**A.** ≥ 5000 nM

**Q.** `COC(=O)c1c(-c2ccc(C(C)(C)C)cc2C)[nH]c2ccncc2c1=O` [Compound 419, methyl 2-(4-(tert-butyl)-2-methylphenyl)-4-oxo-1,4-dihydro-1,6-naphthyridine-3-carboxylate] was tested. Which IC50 did it give?
**A.** < 500 nM

**Q.** How did the IC50 turn out when `Cc1cc(C(C)(C)C)c(Cl)cc1-c1cc(=O)c2c(-c3ncnn3C)nccc2[nH]1` [Compound 420, 2-(4-(tert-butyl)-5-chloro-2-methylphenyl)-5-(1-methyl-1H-1,2,4-triazol-5-yl)-1,6-naphthyridin-4(1H)-one] was run?
**A.** < 500 nM

**Q.** For `[2H]c1c(C)c(-c2cc(=O)c3c(C(N)=O)nccc3[nH]2)cc(Cl)c1C(C([2H])([2H])[2H])(C([2H])([2H])[2H])C([2H])([2H])[2H]` [Compound 425, 2-(5-chloro-2-methyl-4-(2-(methyl-d3)propan-2-yl-1,1,1,3,3,3-d6)phenyl-3-d)-4-oxo-1,4-dihydro-1,6-naphthyridine-5-carboxamide], which IC50 is on record?
**A.** < 500 nM
